{
  "source": "the supplement of paper PMC8728848",
  "test_in_all_cases": "glycan array binding signal (z-score within array); higher = stronger binding",
  "details_in_all_cases": "glycan notation: IUPAC condensed, linker removed",
  "key": {"[1]": {"biological_target": "Neu5Ac(a2-3)Gal(b1-4)[Fuc(a1-3)]GlcNAc", "summary_of_the_method": "(§1)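 Negative Z-scores can be read as non-binding. The Z-score is calculated within each array and then averaged across arrays of one protein sequence at different concentrations or buffers and across linkers. Arrays, 3228 in all, were curated from the Consortium for Functional Glycomics database and kept only where the protein sequence was available.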"}, "[2]": {"biological_target": "Neu5Ac(a2-3)Gal(b1-4)[Fuc(a1-3)]GlcNAc(b1-3)Gal", "summary_of_the_method": "as §1"}, "[3]": {"biological_target": "Neu5Ac(a2-3)Gal(b1-4)[Fuc(a1-3)]GlcNAc(b1-3)Gal(b1-4)GlcNAc", "summary_of_the_method": "as §1"}, "[4]": {"biological_target": "Neu5Ac(a2-3)Gal(b1-4)[Fuc(a1-3)]GlcNAc(b1-3)Gal(b1-4)[Fuc(a1-3)]GlcNAc(b1-3)Gal(b1-4)[Fuc(a1-3)]GlcNAc", "summary_of_the_method": "as §1"}, "[5]": {"biological_target": "Neu5Ac(a2-3)Gal(b1-4)[Fuc(a1-3)]GlcNAc(b1-6)[Gal(b1-3)]GalNAc", "summary_of_the_method": "as §1"}, "[6]": {"biological_target": "Neu5Ac(a2-3)Gal(b1-4)[Fuc(a1-3)]GlcNAc6S", "summary_of_the_method": "as §1"}, "[7]": {"biological_target": "Neu5Ac(a2-3)Gal6S(b1-4)GlcNAc", "summary_of_the_method": "as §1"}, "[8]": {"biological_target": "Neu5Ac(a2-3)Gal6S(b1-4)[Fuc(a1-3)]GlcNAc", "summary_of_the_method": "as §1"}, "[9]": {"biological_target": "Neu5Ac(a2-3)GalNAc", "summary_of_the_method": "as §1"}, "[10]": {"biological_target": "Neu5Ac(a2-3)GalNAc(b1-4)GlcNAc", "summary_of_the_method": "as §1"}, "[11]": {"biological_target": "Neu5Ac(a2-3)[GalNAc(b1-4)]Gal(b1-4)Glc", "summary_of_the_method": "as §1"}, "[12]": {"biological_target": "Neu5Ac(a2-3)[GalNAc(b1-4)]Gal(b1-4)GlcNAc", "summary_of_the_method": "as §1"}, "[13]": {"biological_target": "Neu5Ac(a2-3)[Neu5Ac(a2-6)]GalNAc", "summary_of_the_method": "as §1"}, "[14]": {"biological_target": "Neu5Ac(a2-6)Gal", "summary_of_the_method": "as §1"}, "[15]": {"biological_target": "Neu5Ac(a2-6)Gal(b1-4)Glc", "summary_of_the_method": "as §1"}, "[16]": {"biological_target": "Neu5Ac(a2-6)Gal(b1-4)GlcNAc", "summary_of_the_method": "as §1"}, "[17]": {"biological_target": "Neu5Ac(a2-6)Gal(b1-4)GlcNAc(b1-2)Man(a1-3)[Gal(b1-4)GlcNAc(b1-2)Man(a1-6)]Man(b1-4)GlcNAc(b1-4)GlcNAc", "summary_of_the_method": "as §1"}, "[18]": {"biological_target": "Neu5Ac(a2-6)Gal(b1-4)GlcNAc(b1-2)Man(a1-3)[GlcNAc(b1-2)Man(a1-6)]Man(b1-4)GlcNAc(b1-4)GlcNAc", "summary_of_the_method": "as §1"}, "[19]": {"biological_target": "Neu5Ac(a2-6)Gal(b1-4)GlcNAc(b1-2)Man(a1-3)[GlcNAc(b1-2)Man(b1-4)GlcNAc(b1-2)Man(a1-6)]Man(b1-4)GlcNAc(b1-4)GlcNAc", "summary_of_the_method": "as §1"}, "[20]": {"biological_target": "Neu5Ac(a2-6)Gal(b1-4)GlcNAc(b1-2)Man(a1-3)[Neu5Ac(a2-6)Gal(b1-4)GlcNAc(b1-2)Man(a1-6)]Man(b1-4)GlcNAc(b1-4)GlcNAc", "summary_of_the_method": "as §1"}, "[21]": {"biological_target": "Neu5Ac(a2-6)Gal(b1-4)GlcNAc(b1-2)Man(a1-6)[Gal(b1-4)GlcNAc(b1-2)Man(a1-3)]Man(b1-4)GlcNAc(b1-4)GlcNAc", "summary_of_the_method": "as §1"}, "[22]": {"biological_target": "Neu5Ac(a2-6)Gal(b1-4)GlcNAc(b1-2)Man(a1-6)[GlcNAc(b1-2)Man(a1-3)]Man(b1-4)GlcNAc(b1-4)GlcNAc", "summary_of_the_method": "as §1"}, "[23]": {"biological_target": "Neu5Ac(a2-6)Gal(b1-4)GlcNAc(b1-3)Gal(b1-4)GlcNAc", "summary_of_the_method": "as §1"}, "[24]": {"biological_target": "Neu5Ac(a2-6)Gal(b1-4)GlcNAc(b1-3)Gal(b1-4)[Fuc(a1-3)]GlcNAc(b1-3)Gal(b1-4)[Fuc(a1-3)]GlcNAc", "summary_of_the_method": "as §1"}, "[25]": {"biological_target": "Neu5Ac(a2-6)Gal(b1-4)GlcNAc6S", "summary_of_the_method": "as §1"}, "[26]": {"biological_target": "Neu5Ac(a2-6)GalNAc", "summary_of_the_method": "as §1"}, "[27]": {"biological_target": "Neu5Ac(a2-6)GalNAc(b1-4)GlcNAc", "summary_of_the_method": "as §1"}, "[28]": {"biological_target": "Neu5Ac(a2-8)Neu5Ac", "summary_of_the_method": "as §1"}, "[29]": {"biological_target": "Neu5Ac(a2-8)Neu5Ac(a2-3)Gal(b1-4)Glc", "summary_of_the_method": "as §1"}, "[30]": {"biological_target": "Neu5Ac(a2-8)Neu5Ac(a2-3)[GalNAc(b1-4)]Gal(b1-4)Glc", "summary_of_the_method": "as §1"}, "[31]": {"biological_target": "Neu5Ac(a2-8)Neu5Ac(a2-8)Neu5Ac", "summary_of_the_method": "as §1"}, "[32]": {"biological_target": "Neu5Ac(a2-8)Neu5Ac(a2-8)Neu5Ac(a2-3)Gal(b1-4)Glc", "summary_of_the_method": "as §1"}, "[33]": {"biological_target": "Neu5Ac(a2-8)Neu5Ac(a2-8)Neu5Ac(a2-3)[GalNAc(b1-4)]Gal(b1-4)Glc", "summary_of_the_method": "as §1"}, "[34]": {"biological_target": "Neu5Ac(a2-8)Neu5Ac(a2-8)Neu5Ac(a2-8)Neu5Ac(a2-3)[GalNAc(b1-4)]Gal(b1-4)Glc", "summary_of_the_method": "as §1"}, "[35]": {"biological_target": "Neu5Ac(b2-6)Gal(b1-4)GlcNAc", "summary_of_the_method": "as §1"}, "[36]": {"biological_target": "Neu5Ac(b2-6)GalNAc", "summary_of_the_method": "as §1"}, "[37]": {"biological_target": "Neu5Ac9Ac(a2-6)Gal(b1-4)GlcNAc", "summary_of_the_method": "as §1"}, "[38]": {"biological_target": "Neu5Gc(a2-3)Gal(b1-3)GlcNAc", "summary_of_the_method": "as §1"}, "[39]": {"biological_target": "Neu5Gc(a2-3)Gal(b1-3)[Fuc(a1-4)]GlcNAc", "summary_of_the_method": "as §1"}, "[40]": {"biological_target": "Neu5Gc(a2-3)Gal(b1-4)Glc", "summary_of_the_method": "as §1"}, "[41]": {"biological_target": "Neu5Gc(a2-3)Gal(b1-4)GlcNAc", "summary_of_the_method": "as §1"}, "[42]": {"biological_target": "Neu5Gc(a2-3)Gal(b1-4)[Fuc(a1-3)]GlcNAc", "summary_of_the_method": "as §1"}, "[43]": {"biological_target": "Neu5Gc(a2-6)Gal(b1-4)GlcNAc", "summary_of_the_method": "as §1"}, "[44]": {"biological_target": "Neu5Gc(a2-6)GalNAc", "summary_of_the_method": "as §1"}, "[45]": {"biological_target": "Neu5Gc(b2-6)Gal(b1-4)GlcNAc", "summary_of_the_method": "as §1"}},
  "note": "This is one part of the list.",
  "data": [
    {"binder": "TbCVNHOa (Tuber borchii), Q5MK11 (protein) MSYADSSRNAVLTNGGRTLRAECRNADGNWVTSELDLDTCIGNPNGFLGWGMQNFSHSSEDIKLEEGGRKLTCRPKTVDGGFRERQGIDLNRIQNVNGRLVFQ", "values": [
      {"measurement": "glycan array binding signal (z-score)", "setting": "[1]", "value": -0.351},
      {"measurement": "glycan array binding signal (z-score)", "setting": "[2]", "value": -0.429},
      {"measurement": "glycan array binding signal (z-score)", "setting": "[3]", "value": 0.562},
      {"measurement": "glycan array binding signal (z-score)", "setting": "[4]", "value": -0.439},
      {"measurement": "glycan array binding signal (z-score)", "setting": "[5]", "value": 0.487},
      {"measurement": "glycan array binding signal (z-score)", "setting": "[6]", "value": -0.161},
      {"measurement": "glycan array binding signal (z-score)", "setting": "[7]", "value": -0.344},
      {"measurement": "glycan array binding signal (z-score)", "setting": "[8]", "value": -0.025},
      {"measurement": "glycan array binding signal (z-score)", "setting": "[9]", "value": -0.127},
      {"measurement": "glycan array binding signal (z-score)", "setting": "[10]", "value": -0.428},
      {"measurement": "glycan array binding signal (z-score)", "setting": "[11]", "value": -0.137},
      {"measurement": "glycan array binding signal (z-score)", "setting": "[12]", "value": -0.358},
      {"measurement": "glycan array binding signal (z-score)", "setting": "[13]", "value": -0.409},
      {"measurement": "glycan array binding signal (z-score)", "setting": "[14]", "value": -0.145},
      {"measurement": "glycan array binding signal (z-score)", "setting": "[15]", "value": -0.206},
      {"measurement": "glycan array binding signal (z-score)", "setting": "[16]", "value": -0.183},
      {"measurement": "glycan array binding signal (z-score)", "setting": "[17]", "value": -0.618},
      {"measurement": "glycan array binding signal (z-score)", "setting": "[18]", "value": -0.047},
      {"measurement": "glycan array binding signal (z-score)", "setting": "[19]", "value": -0.081},
      {"measurement": "glycan array binding signal (z-score)", "setting": "[20]", "value": -0.053},
      {"measurement": "glycan array binding signal (z-score)", "setting": "[21]", "value": -0.096},
      {"measurement": "glycan array binding signal (z-score)", "setting": "[22]", "value": -0.034},
      {"measurement": "glycan array binding signal (z-score)", "setting": "[23]", "value": 0.248},
      {"measurement": "glycan array binding signal (z-score)", "setting": "[24]", "value": -0.158},
      {"measurement": "glycan array binding signal (z-score)", "setting": "[25]", "value": 0.106},
      {"measurement": "glycan array binding signal (z-score)", "setting": "[26]", "value": 0.021},
      {"measurement": "glycan array binding signal (z-score)", "setting": "[27]", "value": -0.446},
      {"measurement": "glycan array binding signal (z-score)", "setting": "[28]", "value": -0.17},
      {"measurement": "glycan array binding signal (z-score)", "setting": "[29]", "value": -0.474},
      {"measurement": "glycan array binding signal (z-score)", "setting": "[30]", "value": 0.105},
      {"measurement": "glycan array binding signal (z-score)", "setting": "[31]", "value": -0.426},
      {"measurement": "glycan array binding signal (z-score)", "setting": "[32]", "value": -0.172},
      {"measurement": "glycan array binding signal (z-score)", "setting": "[33]", "value": -0.386},
      {"measurement": "glycan array binding signal (z-score)", "setting": "[34]", "value": -0.338},
      {"measurement": "glycan array binding signal (z-score)", "setting": "[35]", "value": -0.338},
      {"measurement": "glycan array binding signal (z-score)", "setting": "[36]", "value": -0.632},
      {"measurement": "glycan array binding signal (z-score)", "setting": "[37]", "value": 0.221},
      {"measurement": "glycan array binding signal (z-score)", "setting": "[38]", "value": -0.403},
      {"measurement": "glycan array binding signal (z-score)", "setting": "[39]", "value": -0.163},
      {"measurement": "glycan array binding signal (z-score)", "setting": "[40]", "value": 0.245},
      {"measurement": "glycan array binding signal (z-score)", "setting": "[41]", "value": 0.05},
      {"measurement": "glycan array binding signal (z-score)", "setting": "[42]", "value": -0.57},
      {"measurement": "glycan array binding signal (z-score)", "setting": "[43]", "value": -0.39},
      {"measurement": "glycan array binding signal (z-score)", "setting": "[44]", "value": -0.127},
      {"measurement": "glycan array binding signal (z-score)", "setting": "[45]", "value": 0.22}
    ]}
  ]
}
